Experimental data from PubChem BioAssay AID2685 (National Center for Advancing Translational Sciences (NCATS), 2010).
About 2,100 (0.66%) of roughly 320,000 compounds were called active. Inconclusive results, whose numbers are uncertain, are shown with a selection of clear calls. Calls come from the whole dose curve; as a rule, active = well fitted inhibition curve with a large enough effect in the signal ratio, with a control signal flat (not every such curve was filed as active); inconclusive = small, poorly fitted or top-dose-only effect, or effect the other way, or a change in a side signal; inactive = flat fitted curve, though single readings scatter; the % refers to the signal ratio. Where the call is inconclusive, the potency comes from a doubtful curve fit.

assay: qHTS Assay for Lipid Storage Modulators in Drosophila S3 Cells; conditions: BODIPY lipid droplet fluorescence, 18-24 h, cells fed with added oleic acid; lipid storage change, negative = inhibition: at 46.1 µM (top of the series) unless noted
Method in brief: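 Drosophila S3 cells loaded with oleic acid (400 uM, as added) and compounds at several concentrations; lipid droplets imaged by 488-nm laser-scanning cytometry, 500–530 nm intensity and object ratio to cell channel. Percent activity normalized to 20 uM Triacsin C.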
% is set by controls: 0 for no effect and ±100 for the full control effect; potency is the fitted concentration of half-maximal effect.

Row | SMILES | lipid storage change, negative = inhibition | Potency | outcome
1 | OCc1cn(-c2ccccc2)nc1-c1ccc(-c2nn(-c3ccccc3)cc2CO)cc1 | inconclusive: 19.5% | – | –
2 | c1csc(-c2nn3c(C4COc5ccccc5O4)nnc3s2)c1 (stereo unspecified) | – | inconclusive: 1.46 µM [activator, partial curve] | –
3 | O=C(c1cccc(COc2ccc(Cl)cc2Cl)c1)N1CCN(c2ccccn2)CC1 | – | inconclusive: 2.31 µM [activator, full curve] | –
4 | CC(C)(C)n1cnnc1Sc1ncccc1[N+](=O)[O-] | – | inconclusive: 6.51 µM [falling, partial curve, poor fit] | –
5 | O=C(NCCc1c[nH]c2ccccc12)c1ccccc1 | inconclusive: -14.3% | – | –
6 | CNC(=S)Nc1ccc(N2CCN(c3ccc(C(F)(F)F)cn3)CC2)nc1 | – | inconclusive: 29.1 µM [falling, single point] | –
7 | O=C(N/N=C/c1ccccc1C(=O)O)c1ccncc1 | inconclusive: 3.7% | – | –
8 | COCCSc1nnc(NC(=O)C2CCCO2)s1 (stereo unspecified) | – | inconclusive: 0.231 µM [falling, full curve] | –
9 | Cc1cc(C(F)F)n2nc(C(=O)O)nc2n1 | – | inconclusive: 1.3 µM [falling, full curve] | –
10 | COc1ccc(S(=O)(=O)Nc2c(O)c3ccccc3oc2=O)cc1 | inconclusive: 29.7% | – | –
11 | COc1ccc(-c2nc(-c3ccncc3)no2)cc1OC | inconclusive: 8.96% | – | –
12 | COc1cc(/C=N/NC(=S)NC2CC3CC2C2C=CCC32)ccc1O (stereo unspecified) | inconclusive: -15.8% | – | –
13 | COc1ccc(C2C(C(=O)c3ccc(C)o3)=C(O)C(=O)N2CC2CCCO2)cc1OC (stereo unspecified) | – | inconclusive: 1.46 µM [activator, partial curve, poor fit] | –
14 | COc1ccc(OC)c(S(=O)(=O)N2CCC(C(=O)N3CCN(c4ccc(F)cc4)CC3)CC2)c1 | inconclusive: -15.3% | – | –
15 | CCn1c(=O)c(C2=NS(=O)(=O)c3ccccc3N2)c(O)c2ccccc21 | inconclusive: 11.2% | – | –
16 | Cc1c(C(C)(C)O)[nH]c2ccc(C#N)cc12 | inconclusive: -18.3% | – | –
17 | COc1ccccc1NC(=O)c1sc(Cl)nc1C | – | – | inactive [at 46.1 µM]
18 | Cc1cc(C)n(C(=O)CNC(=O)COc2ccccc2)n1 | inconclusive: -34.7% | – | –
19 | Clc1ccc(-c2csc3ncnc(Cl)c23)cc1 | inconclusive: 104% | – | –
20 | Cc1cc(C)c([N+](=O)[O-])cc1NC(=O)CCSc1ccccc1Cl | – | inconclusive: 0.146 µM [activator, full curve, poor fit] | –
21 | COc1cccc(/C=N/n2c(-c3n[nH]c4c3CCC4)n[nH]c2=S)c1OC | inconclusive: 7.19% | – | –
22 | CCOC(=O)C1(Cc2cccc(F)c2)CCN(Cc2ccc(COC)o2)CC1 | inconclusive: 11% | – | –
23 | c1ccc2c(c1)NC1(CCCCCC1)n1c-2nc2ccccc21 | – | inconclusive: 0.146 µM [activator, full curve, poor fit] | –
24 | CCOc1ccc(N(C(=O)CNC(=O)c2ccco2)C(C(=O)NC2CCCC2)c2cccnc2)cc1 (stereo unspecified) | inconclusive: -3.26% | – | –
25 | NS(=O)(=O)c1ccc(N/N=C/c2ccccn2)c([N+](=O)[O-])c1 | inconclusive: 26.1% | – | –
26 | COc1ccc(-c2csc(NC(=O)C3CC(=O)N(Cc4ccccc4)C3)n2)cc1OC (stereo unspecified) | – | inconclusive: 4.11 µM [falling, single point] | –

Copied from the listing for reference:
Row | SMILES | lipid storage change, negative = inhibition | Potency | outcome
16 | Cc1c(C(C)(C)O)[nH]c2ccc(C#N)cc12 | inconclusive: -18.3% | – | –
17 | COc1ccccc1NC(=O)c1sc(Cl)nc1C | – | – | inactive [at 46.1 µM]
18 | Cc1cc(C)n(C(=O)CNC(=O)COc2ccccc2)n1 | inconclusive: -34.7% | – | –

Later entries

Row | SMILES | lipid storage change, negative = inhibition | Potency | outcome
27 | O=C(CCCCn1c(=O)[nH]c2ccccc2c1=O)N1CCN(c2ncccn2)CC1 | inconclusive: -0.875% | – | –
28 | COc1cc(-c2c(-c3ccc4c(c3)OCO4)noc2-c2ccsc2)ccc1F | inconclusive: 36.3% | – | –
29 | CC1CC1C(=O)OCC(=O)Nc1cccc(S(=O)(=O)NC2=NCCCCC2)c1 (stereo unspecified) | – | inconclusive: 1.84 µM [activator, partial curve, poor fit] | –
30 | O=C(c1ccc(Br)o1)N1CCN(c2ccc(F)cc2)CC1 | – | inconclusive: 7.31 µM [activator, partial curve] | –
31 | S=C1NCN(C2CCCCC2)CN1Cc1ccccc1 | inactive: 5.67% | – | –
32 | c1ccc(-c2nc3c4ccccc4ccn3c2CN2CCOCC2)cc1 | inconclusive: 0.359% | – | –
33 | COc1cc2c(cc1NC(=S)NC(=O)/C=C/c1ccc(OC)c(OC)c1)oc1ccccc12 | inconclusive: 35.7% | – | –
34 | O=C(O)/C=C/C(=O)Nc1ccc(-n2ccc(C(F)(F)F)n2)cc1 | inconclusive: 12.1% | – | –
35 | O=C(COC(=O)C1CCN(c2ccc(C(F)(F)F)cn2)CC1)c1ccccc1Cl | inconclusive | – | –
36 | CN(C(=O)COC(=O)c1ccc(NS(=O)(=O)c2cccs2)cc1)C1CCCCC1 | inconclusive: 4.99% | – | –
37 | CCCCOc1ccc(C(=O)NCC(=O)NC(C)CCc2ccccc2)cc1 (stereo unspecified) | inconclusive: 70.5% | – | –
38 | CCN(CC)c1nc(N)c([N+](=O)[O-])c(NCCO)n1 | – | inconclusive: 6.51 µM [activator, single point] | –
39 | CCOc1ccccc1-n1c(SCC(=O)N2CCCc3ccccc32)nnc1-c1cccnc1 | inconclusive: -88.1% | – | –
40 | Cc1cccc(Nc2nc(OCC#N)nc(N(C)C)n2)c1 | inconclusive: -34.2% | – | –
41 | Cc1ccc(NC(=O)c2ccc(=O)n(CC(=O)Nc3c(C)cc(C)cc3C)n2)cc1 | – | inconclusive: 29.1 µM [rising, single point] | –
42 | COc1cc(CN2CCC(n3nccc3NC(=O)C3CC3)CC2)cc(OC)c1 | inconclusive: 15.4% | – | –
43 | O=C1/C(=C/c2cccc([N+](=O)[O-])c2)Oc2cc(O)ccc21 | – | inconclusive: 29.1 µM [falling, single point] | –
44 | c1cc2c(cc1CN1CCOCC1)OCO2 | – | inconclusive: 1.84 µM [activator, partial curve] | –
45 | COc1ccc(NC(=O)CC(Cc2ccccc2)C(=O)O)cc1 (stereo unspecified) | inconclusive: -29.6% | – | –
46 | Oc1ccc(N2CCN(Cc3ccc(OCCCN4CCCCC4)cc3)CC2)cc1 | – | inconclusive: 6.51 µM [activator, single point] | –
47 | COc1ccc(OCCNS(=O)(=O)c2ccccc2)cc1 | inconclusive: -13.2% | – | –
48 | O=C(O)c1cccc(NC(=O)c2cn(-c3ccccc3)nc2-c2ccc(F)cc2)c1 | inconclusive: 74.6% | – | –
49 | COc1cc(OC)cc(C(=O)NCC(=O)OCC(=O)C(C)(C)C)c1 | – | inconclusive: 0.366 µM [falling, full curve, poor fit] | –
50 | CN(CC(=O)Nc1ccccc1C(F)(F)F)C(=O)c1cc(Cl)nc2ccccc12 | inconclusive: 67.3% | – | –
51 | CCc1ccc(S(=O)(=O)NCCc2cn3ccsc3n2)s1 | – | inconclusive: 6.51 µM [activator, single point] | –
52 | Cc1cccc(OCc2nnc(NC(=O)c3cccs3)s2)c1 | inconclusive: 45.6% | – | –

Row | SMILES | lipid storage change, negative = inhibition | Potency | outcome
53 | CC(OC(=O)c1ccc(-c2ccc(O)cc2)cc1)C(=O)NC1CCCCC1C (stereo unspecified) | inconclusive: 4.2% | – | –
54 | CCOC(=O)CSc1nc(N)cc(=O)[nH]1 | inconclusive: -1.88% | – | –
55 | Cc1cc(C)c2[nH]c(O)c(N=NC(=S)NCC3CCCO3)c2c1 (stereo unspecified) | inconclusive: 20.9% | – | –
56 | CCOc1ccc2nc(SCC(=O)Nc3ccc(S(=O)(=O)N4CCCC4)cc3)c(C)cc2c1 | – | inconclusive: 4.61 µM [falling, full curve, poor fit] | –
57 | O=C(N/N=C/C=C/c1cccc([N+](=O)[O-])c1)c1ccncc1 | inconclusive: -4.98% | – | –
58 | CCOC(=O)/C=C1\SCC(=O)N1Cc1ccc(Br)cc1 | inconclusive: -8.8% | – | –
59 | CC(C)(C)c1ccc(/C=N/Nc2nncn2N)cc1 | inconclusive: -61.4% | – | –
60 | Cc1ccc(C(=O)NC(C)c2ccc(-n3ccnc3)cc2)cc1 (stereo unspecified) | inconclusive: 98.2% | – | –
61 | CCCCN(C(=O)c1cccc(N2C(=O)c3ccccc3C2=O)c1)c1c(N)n(CC(C)C)c(=O)[nH]c1=O | inconclusive: 8.54% | – | –
62 | Cc1ccc(Oc2ccccc2/C=C2\SC(=O)N(C)C2=O)cc1 | inconclusive: -29.1% | – | –
63 | COc1ccc(C)cc1N1CC(C(=O)OCc2nc(N)nc(Nc3ccccc3C)n2)CC1=O (stereo unspecified) | inconclusive | – | –
64 | Cc1ccc(N(C)S(=O)(=O)c2cc3c(cc2C)NC(=O)CO3)cc1 | – | inconclusive: 20.6 µM [falling, single point] | –
65 | Cc1c(N=Cc2ccc(O)c(Br)c2)cccc1[N+](=O)[O-] | inconclusive: 7.79% | – | –
66 | COc1ccc(S(=O)(=O)N2CCOC23CCN(S(C)(=O)=O)CC3)cc1 | inconclusive: 12.8% | – | –
67 | O=C(COc1ccccc1)NNC(=O)c1ccc(Cl)cc1 | inconclusive: 6.18% | – | –
68 | OC(CN1CCN(Cc2ccccc2)CC1)Cn1c2ccccc2c2ccccc21 (stereo unspecified) | – | inconclusive: 29.1 µM [falling, single point] | –
69 | CNCc1ccccc1Sc1ccc(O)c(O)c1 | – | inconclusive: 23.1 µM [falling, single point] | –
70 | O=C(C1CCC(Cn2c(=S)[nH]c3ccccc3c2=O)CC1)N1CCOCC1 (stereo unspecified) | inconclusive: 21.4% | – | –
71 | CSc1nncn1/N=C/c1ccc([N+](=O)[O-])cc1 | – | inconclusive: 29.1 µM [cytotoxic, single point] | –
72 | CC(C)(C)c1ccc(C(=O)NNC(=O)c2ccncc2)cc1 | – | inconclusive: 29.1 µM [activator, single point] | –
73 | Cc1nc(C)c(-c2csc(Nc3ccc(O)c(C(=O)O)c3)n2)s1 | – | inconclusive: 16.4 µM [activator, single point] | –
74 | O=C(O)c1nn2c(C(F)(F)F)cc(-c3cccs3)nc2c1Cl | inconclusive: 5.87% | – | –
75 | CCN(CC)S(=O)(=O)c1cccc(C(=O)/C=C2/N(C)c3ccccc3C2(C)C)c1 | – | inconclusive: 4.61 µM [activator, single point] | –
76 | Cc1ccc(S(=O)(=O)N(C(=O)c2ccncc2)c2ccc3oc4c(c3c2)CCCC4)cc1[N+](=O)[O-] | – | inconclusive: 0.164 µM [falling, partial curve, poor fit] | –
